Screening data

Data taken from PubChem BioAssay AID912, deposited by NCATS (2007).

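Uptake of anthrax lethal toxin into cultured cells, read by FRET (460/530 nm ratio) and reported from the 460 nm channel; the cell line is not named here. Each compound was tested as a concentration series from about 0.0005 to 40 µM. The number is the fitted AC50 of the 460 nm signal alone; lower values mean a more potent effect. A falling signal goes with compounds filed as inhibitors or cytotoxic, a rising one with activators or fluorescent compounds (inferred from the filed classes).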

Values are in µM. Common to all entries: measured here: 460 nm channel. This is a side read-out of the assay, for part of the compounds, not drawn at random. Potencies fitted to partial, single-point or poorly fitting curves are rough. The first word of each remark tells which way the curve ran; it can be opposite to the aim of the assay.

compound,AC50 (µM),curve as filed
Cc1ccc(C)c(N(CC(=O)NC2CCCCC2)C(=O)CCC(=O)Nc2ccccn2)c1,12.59,"rising, single point"
Nc1cc(-c2cccc(F)c2)nn1S(=O)(=O)c1cccc2nsnc12,31.62,"falling, single point"
C1CCC(c2nn3c(-c4n[nH]c5c4CCC5)nnc3s2)CC1,31.62,"rising, single point"
c1ccc2sc(SCCSc3nc4ccccc4s3)nc2c1,0.1259,"falling, single point"
COC(=O)c1cc(Oc2ccc(C(=O)OC)cc2N)cc(C(=O)OC)c1,0.631,"rising, full curve, poor fit"
COc1cc2c(cc1OC)C1=C(C#N)CN(C3CCCCC3)CN1CC2,31.62,"falling, single point"
O=C(c1ccncc1)N1CCC2(CC1)CCN(C(c1ccccc1)c1ccccc1)CC2,0.1259,"rising, partial curve, poor fit"
COc1ccc(NC(=O)CCc2nc(-c3ccc(C)cc3)no2)cc1Cl,31.62,"falling, partial curve, poor fit"
c1ccc(-c2cccc(N3CCC4(CCNCC4)CC3)c2)cc1,10,"falling, partial curve"
O=C(NCCc1ccccc1)C1CC(=O)N(C2CCCCCC2)C1 (configuration not stated),25.12,"rising, single point"
COC(=O)Nc1nc2ccc(C(=O)c3cccs3)cc2[nH]1,0.02512,"falling, full curve"
COc1cccc(NC(=O)CSc2nnc(-c3cc(C)n(-c4ccccc4)c3C)o2)c1,12.59,"falling, partial curve, poor fit"
COc1ccc(Cc2noc(-c3ccc(C)cc3)n2)cc1,31.62,"falling, single point"
Clc1ccc(C2CC(c3cccs3)n3ncnc3N2)cc1Cl (configuration not stated),31.62,"falling, single point"
CC(NS(=O)(=O)c1ccc(F)cc1)C(=O)NCc1ccncc1 (configuration not stated),0.3981,"falling, partial curve, poor fit"
Cc1ccc(-c2nc(CSCC(=O)N3CCN(c4ccccn4)CC3)c(C)o2)cc1,3.981,"falling, partial curve"
COc1cccc(Cn2c(=O)cnc3cnc(N(C)C)nc32)c1,31.62,"rising, single point"
O=C(CSc1nc(-c2ccco2)cc(C(F)(F)F)n1)Nc1ccc(C(=O)N2CCCCC2)cc1,3.162,"falling, partial curve"
O=C(c1cnccn1)N1CCC2(CCN(Cc3ccncc3)CC2)CC1,3.162,"falling, full curve"
COc1cc(OC)cc(C(=O)Nc2cc(NC(=O)c3ccco3)ccc2OC)c1,10,"falling, single point"
COc1ccc(CCn2c(O)c(C=NCCCO)c(=O)[nH]c2=O)cc1OC,0.3981,"falling, partial curve"
COc1cccc(C=NC=Nc2cccc(OC)c2)c1,19.95,"falling, partial curve, poor fit"
CCCC(=O)N1CCN(c2ccc(C(=O)c3ccc(OC)c(Br)c3)cc2F)CC1,1.585,"falling, full curve"
Cc1nc2c3cnn(-c4ccccc4)c3ncn2n1,3.981,"rising, partial curve"
CCOC(=O)N1CCN(S(=O)(=O)c2ccc(C(=O)Nc3nc4ccc(F)cc4s3)cc2)CC1,31.62,"falling, single point"
COC(=O)C1CCN(C(=O)COC(=O)CC(NC(N)=O)c2ccc(Cl)cc2)CC1 (configuration not stated),31.62,"rising, single point"
N#Cc1ccc(NC(=O)Nc2ccc(Cl)cc2)cc1,3.162,"falling, partial curve"
Cc1c(NC(=O)CC2CC(C)OC2=O)c(=O)n(-c2ccccc2)n1C (configuration not stated),31.62,"falling, single point"
O=C(CSc1nnc2c(Cl)cc(C(F)(F)F)cn12)Nc1ccc2c(c1)OCO2,3.981,"rising, partial curve"
CCc1nnc(NC(=O)CSc2nnc(CNc3ccc(Cl)cc3)o2)s1,5.012,"rising, single point"
O=C(Cn1c(=O)c2c(ncn2C2CCCC2)n(Cc2ccccc2)c1=O)N1CCc2ccccc21,19.95,"falling, partial curve"
CCOC(=O)CSc1nc2ccccc2c(=O)n1CC,0.003981,"falling, full curve, poor fit"
C[C@H]1[C@H](C)CC[C@@]2(C(=O)O)CC[C@]3(C)C(=CC[C@@H]4[C@@]5(C)CC[C@H](O)C(C)(C)[C@@H]5CC[C@@]43C)[C@@H]12,15.85,"falling, partial curve"
N#CCCn1c(=O)c(-c2ccc(Cl)cc2)nc2cnc(OCc3ccccc3)nc21,19.95,"rising, partial curve"
CCOC(=O)NCc1ccc(Cl)c(Cl)c1,0.003981,"falling, full curve, poor fit"
CCCC(=O)c1ccc(N2CCN(S(=O)(=O)c3ccccc3)CC2)c(F)c1,12.59,"falling, partial curve"
CCN1CCN(c2ncnc3c2sc2nc(N4CCOCC4)c4c(c23)CCC4)CC1,25.12,"rising, single point"
COc1cccc(C2CC(=O)Nc3cc4c(cc32)OCCO4)c1OC(C)C (configuration not stated),5.012,"rising, full curve"
Cc1cc(S(=O)(=O)NC(C)C)ccc1OCC(=O)N1CCN(Cc2ccc3c(c2)OCO3)CC1,31.62,"rising, single point"
CC(C)NC(=O)N1CCC2(CC1)CCN(C(=O)c1ccncc1)CC2,0.7943,"falling, full curve"
CN1CCN(CCCN2c3ccccc3Sc3ccc(C(F)(F)F)cc32)CC1,25.12,"falling, partial curve"
COc1ccc(CCNS(=O)(=O)c2cccc3nsnc23)cc1OC,0.1995,"rising, full curve, poor fit"
COC(=O)[C@@]1(Cc2ccc(F)cc2)[C@H]2c3cc(C(=O)N4CCCC4)n(Cc4cc(C)n(C)n4)c3C[C@H]2CN1C(=O)c1ccccc1,12.59,"rising, single point"
FC(F)(F)c1cc(CN2CC3(CCNCC3)C2)cc(C(F)(F)F)c1,25.12,"rising, partial curve"
C=CCOC(=O)C1=C(C)NC(SCC(=O)NC(=O)OCC)=C(C#N)C1c1cccnc1 (configuration not stated),12.59,"rising, single point"
CCC(=O)Oc1ccc2c(C)cc(=O)oc2c1C,12.59,"rising, partial curve"
COC(=O)c1c(-c2cc(OC)c(OC)c(OC)c2)c2ccnc(OCc3ncccn3)c2c(=O)n1Cc1ccnc(C)c1,12.59,"falling, full curve"
Brc1cc(Br)c(Oc2cc(Br)c(Br)cc2Br)cc1Br,5.012,"falling, partial curve"
O=C(CN1CCOCC1)Nc1ccc(Oc2ccc(NC(=O)CN3CCOCC3)cc2)cc1,12.59,"falling, single point"

The first 3 entries again:

compound,AC50 (µM),curve as filed
Cc1ccc(C)c(N(CC(=O)NC2CCCCC2)C(=O)CCC(=O)Nc2ccccn2)c1,12.59,"rising, single point"
Nc1cc(-c2cccc(F)c2)nn1S(=O)(=O)c1cccc2nsnc12,31.62,"falling, single point"
C1CCC(c2nn3c(-c4n[nH]c5c4CCC5)nnc3s2)CC1,31.62,"rising, single point"